Experimental data as given in PMC6441110, “A novel 3-hydroxypropionic acid-inducible promoter regulated by the LysR-type transcriptional activator protein MmsR of Pseudomonas denitrificans” (Scientific Reports, 2019).

Biological target: T1, MmsR (LysR-type transcriptional activator, C4-LysR) (Pseudomonas denitrificans ATCC 13867) (UniProt A0A9X7MYS1)
T1 sequence (looked up, limits assumed): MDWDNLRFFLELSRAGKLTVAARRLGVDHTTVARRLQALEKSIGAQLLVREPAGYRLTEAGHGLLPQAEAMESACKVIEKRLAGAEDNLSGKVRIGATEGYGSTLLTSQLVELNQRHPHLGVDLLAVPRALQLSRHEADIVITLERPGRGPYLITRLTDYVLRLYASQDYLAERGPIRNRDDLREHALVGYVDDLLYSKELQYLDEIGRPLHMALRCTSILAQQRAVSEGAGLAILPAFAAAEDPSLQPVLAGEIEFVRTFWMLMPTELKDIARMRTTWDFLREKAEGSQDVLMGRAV
Assay: EMSA
Details: 50 mM Tris pH 7.4, 0.5 mM DTT, 0.5 mM EDTA, room temperature, EMSA 40 nM DNA, 0-48.5 nM MmsR, 30 min, footprinting 230 nM DNA, 0-1.2 uM MmsR, recombinant protein, protein details: C-terminal His6 (pET30b+), label: none (SYBR Green stain)

Sequence	binding result (25 mM 3-HP (binding greatly reduced))	binding result (no 3-HP)	binding result (no shift up to 72.7 nM MmsR, 3-HP state not specified)
GTCAGCCTCAGCGCACCTCGATCCTTGCTAAACGCAGACCATACCGCCCAGGCACCGCATTGAGTACATCAAAAATGCACTGTTAGGATCGATCCAGACAACAAAAAAGCCACAGGCTGGGAGAATCCCG (double strand) [F1M2 (O1 mutant, O2 intact)]	binds more weakly	binds more weakly	
GTCAGCCTCAGCGCACCTCGATCCTTGCTAAACGCAGACCATACCGCCCAGGCACCGCATTGAGTACATCAATCCTTGCTTGTTAGGATCGCGCCCAGGCACAAAAAAGCCACAGGCTGGGAGAATCCCG (double strand) [F1M2M (O1 and O2 mutant)]			no binding

Construct, isoform or probe ends are uncertain for at least one entry. Negatives hold for the conditions tested. Tags and fusion partners may be left off the protein sequences shown. The comparison behind a weaker result is the experiment's own reference, which may not be listed here.
